Reference: PMC8727739
Results are given in words; binding and its absence hold for the method and conditions named. In cells and extracts the contact can be indirect. Some entries that bind do so weakly or less than the wild type. Sequences can lack the tags named with a protein.

Experiments:
Test in all cases: co-IP; FLAG-STK11 (wild type or variant) co-transfected with STRADα in HEK293; precipitated with anti-Flag beads, washed three times with NP40; blots with anti-STK11, then anti-STRADα and anti-MO25
[1] = target: T1, Serine/Threonine Kinase 11 (STK11), wild type, FLAG-tagged (human) (UniProt Q15831)
T1 sequence: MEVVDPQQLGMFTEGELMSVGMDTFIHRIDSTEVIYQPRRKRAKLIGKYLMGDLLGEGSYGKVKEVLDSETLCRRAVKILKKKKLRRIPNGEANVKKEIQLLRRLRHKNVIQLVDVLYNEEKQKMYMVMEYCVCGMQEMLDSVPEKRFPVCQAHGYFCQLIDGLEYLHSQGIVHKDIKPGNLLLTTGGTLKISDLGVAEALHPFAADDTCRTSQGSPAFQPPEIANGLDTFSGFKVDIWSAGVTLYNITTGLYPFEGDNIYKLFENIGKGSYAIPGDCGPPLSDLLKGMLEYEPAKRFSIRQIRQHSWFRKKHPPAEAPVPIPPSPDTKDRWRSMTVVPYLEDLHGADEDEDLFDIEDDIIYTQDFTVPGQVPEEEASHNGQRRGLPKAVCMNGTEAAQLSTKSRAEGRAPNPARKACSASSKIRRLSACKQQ

[2] = target: T2, STK11 R297S, FLAG-tagged (human) (UniProt Q15831)
T2 sequence: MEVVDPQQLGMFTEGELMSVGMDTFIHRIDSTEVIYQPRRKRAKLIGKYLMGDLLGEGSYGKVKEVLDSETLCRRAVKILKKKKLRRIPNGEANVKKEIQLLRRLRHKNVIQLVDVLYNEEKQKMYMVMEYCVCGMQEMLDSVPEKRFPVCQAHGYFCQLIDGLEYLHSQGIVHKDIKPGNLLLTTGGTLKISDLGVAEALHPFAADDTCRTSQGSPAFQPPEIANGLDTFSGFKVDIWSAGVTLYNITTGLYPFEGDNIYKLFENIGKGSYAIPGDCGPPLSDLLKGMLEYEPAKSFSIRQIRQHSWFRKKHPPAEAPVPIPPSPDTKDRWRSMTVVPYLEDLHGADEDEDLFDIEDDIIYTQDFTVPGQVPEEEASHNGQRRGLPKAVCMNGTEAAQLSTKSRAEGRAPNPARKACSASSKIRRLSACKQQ

[3] = target: T3, STK11 R297M, FLAG-tagged (human) (UniProt Q15831)
T3 sequence: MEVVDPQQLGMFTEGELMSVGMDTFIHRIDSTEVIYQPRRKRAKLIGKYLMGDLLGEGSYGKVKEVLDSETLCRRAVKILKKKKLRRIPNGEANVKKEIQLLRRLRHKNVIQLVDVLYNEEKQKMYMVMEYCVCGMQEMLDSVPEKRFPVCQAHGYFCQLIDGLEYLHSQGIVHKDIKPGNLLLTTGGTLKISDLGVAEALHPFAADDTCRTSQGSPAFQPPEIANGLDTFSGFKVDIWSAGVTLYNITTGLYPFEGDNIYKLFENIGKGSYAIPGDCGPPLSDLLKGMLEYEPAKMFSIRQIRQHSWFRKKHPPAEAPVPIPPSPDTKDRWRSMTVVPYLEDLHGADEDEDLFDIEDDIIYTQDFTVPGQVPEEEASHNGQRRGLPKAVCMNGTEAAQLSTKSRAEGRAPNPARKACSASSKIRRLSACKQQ

binding [1]: binds
binding [2]: no binding
binding [3]: no binding
B1: STRADα (protein, UniProt Q7RTN6 1-431)
chain: MSFLVSKPERIRRWVSEKFIVEGLRDLELFGEQPPGDTRRKTNDASSESIASFSKQEVMSSFLPEGGCYELLTVIGKGFEDLMTVNLARYKPTGEYVTVRRINLEACSNEMVTFLQGELHVSKLFNHPNIVPYRATFIADNELWVVTSFMAYGSAKDLICTHFMDGMNELAIAYILQGVLKALDYIHHMGYVHRSVKASHILISVDGKVYLSGLRSNLSMISHGQRQRVVHDFPKYSVKVLPWLSPEVLQQNLQGYDAKSDIYSVGITACELANGHVPFKDMPATQMLLEKLNGTVPCLLDTSTIPAEELTMSPSRSVANSGLSDSLTTSTPRPSNGDSPSHPYHRTFSPHFHHFVEQCLQRNPDARPSASTLLNHSFFKQIKRRASEALPELLRPVTPITNFEGSQSQDHSGIFGLVTNLEELEVDDWEF
